# Source: PubChem BioAssay AID504444 (National Center for Advancing Translational Sciences (NCATS), 2011)
# The whole screen tested about 360,000 compounds, of which about 7,500 (2.1%) were called active. Inconclusive means that the source gave no clear call. Such entries were picked first, then a sample of the others. Calls come from the whole dose curve; as a rule, active = well fitted inhibition curve with a large enough effect; inconclusive = small, poorly fitted or top-dose-only effect, or effect the other way; inactive = flat fitted curve, though single readings scatter. Potencies of inconclusive entries are doubtful fits and often do not repeat.
# Test: Nrf2 qHTS screen for inhibitors; note: nearly all actives have a fitted effect of over 60% in size
# Settings: A549 ARE-Fluc reporter, luciferase luminescence, 18-24 h; activity change, negative = inhibition: at 46 µM (top of the series)
# In short: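 A549 ARE_Fluc cells, 5000/well, 5% FBS OPTI-MEM; compounds in dose-response, 18-24 h at 37 °C/5% CO2; CellTiter-Fluor viability read (Ex 405/Em 525), then BugLite luciferase luminescence = Nrf2 activity.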
# % is set by controls: 0 for no effect and ±100 for the full control effect; potency is the fitted concentration of half-maximal effect.
SMILES,"activity change, negative = inhibition",Potency
Cn1c(CCCOc2ccc(Cl)cc2Cl)nnc1SCC(=O)Nc1cccc(F)c1,inactive: 20.6%,
COc1cccc(N2CCN(C(=O)CCC(=O)c3ccc(Cl)s3)CC2)c1,,"inconclusive: 20.6 µM [falling, partial curve, poor fit]"
O=C(NNC(=S)Nc1ccc(F)cc1)c1cccc([N+](=O)[O-])c1,,"inconclusive: 20.6 µM [activator, partial curve, poor fit]"
Cc1cc(C(=O)N/N=C/c2c3ccccc3cc3ccccc23)n[nH]1,inactive: -5%,
CCOc1ccccc1C(=O)Nc1cccc(-c2nnc(-c3ccccc3)o2)c1,,"inconclusive: 0.0517 µM [falling, partial curve, poor fit]"
O=C(NCCc1c[nH]c2ccccc12)c1cccc(Br)c1,,"inconclusive: 9.2 µM [activator, partial curve, poor fit]"
CN(C)N1C(N)=C(C#N)C(c2cccc3ccccc23)C2=C1CC(c1ccccc1)CC2=O (stereo not drawn),,"inconclusive: 29.1 µM [falling, single point]"
COc1cccc(-c2nnc(-c3ccccc3[N+](=O)[O-])o2)c1,,"inconclusive: 5.8 µM [activator, partial curve, poor fit]"
CC(C)c1ccc(O)c(NC(=S)NC(=O)c2ccc3c(c2)OCO3)c1,inactive: 4.03%,
O=C(NNC(=S)NC(=O)c1ccco1)c1ccc(F)cc1,,"inconclusive: 32.6 µM [falling, single point]"
Cc1nc(SCc2nc3ccc(F)cc3[nH]2)c2oc3ccccc3c2n1,inactive: -26.2%,
O=c1c2ccccc2cnn1-c1ccc(Cl)nn1,,"inconclusive: 16.4 µM [activator, single point]"
CCOC(CCNC(=O)CCC(=O)Nc1ccc2nc(N3CCN(C)CC3)cc(C)c2c1)OCC,inactive: 5.35%,
O=C(NCCC1=CCCCC1)c1ccc([N+](=O)[O-])cc1,,"inconclusive: 9.2 µM [activator, partial curve, poor fit]"
Cc1ccc(-c2onc(C)c2C)cc1S(=O)(=O)N1CCc2ccccc21,,"inconclusive: 29.1 µM [falling, single point]"
N#Cc1c(/N=C/c2cc3ccccc3s2)sc2c1CCC2,,"inconclusive: 0.411 µM [activator, full curve, poor fit]"
CCOC(=O)N1CCN(S(=O)(=O)c2ccc(C(=O)Nc3ccc4c(c3)C(=O)NC4=O)cc2)CC1,inactive: -12%,
COC(=O)c1ccc(NC(=O)C(c2ccccc2)N2Cc3ccccc3C2=O)cc1 (stereo not drawn),inactive: 10.8%,
Cc1cccc(CCNC(=O)CCc2c(C)nc3c(-c4ccc(F)cc4)c(C)nn3c2C)c1,inactive: -20.8%,
Cc1ccc(S(=O)(=O)N(C)C)cc1NC(=O)CSc1nc2ncc(Cl)cc2[nH]1,,"inconclusive: 18.4 µM [falling, partial curve]"
CCOc1ccc(OCCSc2ccc(S(=O)(=O)N3CCN(C)CC3)cn2)cc1,,"inconclusive: 29.1 µM [falling, single point]"
Cc1ccc(-c2nnc3c(C(F)(F)F)nc4ccccc4n23)cc1,,active: 23.1 µM

# Arranged by number of heavy atoms (ascending): 3 of the compounds above
SMILES,"activity change, negative = inhibition",Potency
O=C(NCCC1=CCCCC1)c1ccc([N+](=O)[O-])cc1,,"inconclusive: 9.2 µM [activator, partial curve, poor fit]"
O=C(NCCc1c[nH]c2ccccc12)c1cccc(Br)c1,,"inconclusive: 9.2 µM [activator, partial curve, poor fit]"
CCOC(=O)N1CCN(S(=O)(=O)c2ccc(C(=O)Nc3ccc4c(c3)C(=O)NC4=O)cc2)CC1,inactive: -12%,

# Remaining list, next part:

SMILES,"activity change, negative = inhibition",Potency
CN1CCN(c2ccc(-c3nc(-c4ccccc4)no3)cc2[N+](=O)[O-])CC1,,"inconclusive: 29.1 µM [falling, single point]"
O=C(CSc1nnc(CNc2ccccc2)o1)N1CCCc2ccccc21,inactive: -0.166%,
O=C(COC(=O)C1CCN(S(=O)(=O)c2cccs2)CC1)Nc1ccc(F)cc1Cl,,"inconclusive: 16.4 µM [activator, partial curve, poor fit]"
CC(C)c1ccc(/C=C2\SC(=O)N(CC(=O)NC3CCS(=O)(=O)C3)C2=O)cc1 (stereo not drawn),inactive: 22.3%,
O=[N+]([O-])c1ccc(N2CCSCC2)cc1,,"inconclusive: 25.9 µM [activator, partial curve, poor fit]"
O=C(O)CSc1nc(SCc2ccccc2Cl)nc2c1CCCC2,,"inconclusive: 10.3 µM [falling, partial curve, poor fit]"
O=S1(=O)CCC(NC(=S)SCCOc2ccccc2)C1 (stereo not drawn),,"inconclusive: 23.1 µM [falling, single point]"
Clc1ccc(-c2noc(CSc3nnc(-c4ccncc4)n3-c3ccccc3)n2)cc1,,active: 2.31 µM
O=C(c1cccc(C(=O)N2CCN(Cc3ccccc3)CC2)c1)N1CCN(Cc2ccccc2)CC1,,"inconclusive: 14.6 µM [falling, partial curve]"
Cc1c(Cl)cccc1NC(=O)c1cc(C2CC2)on1,,"inconclusive: 8.2 µM [activator, partial curve]"
COc1cc(NS(=O)(=O)c2ccc3c(c2)OCC(C(=O)N2CCCC2)O3)cc(OC)c1 (stereo not drawn),,"inconclusive: 2.06 µM [falling, full curve]"
OCCCCNCc1ccc(OCc2ccc(Cl)cc2Cl)cc1,,"inconclusive: 29.1 µM [falling, single point]"
CCC(C)Sc1ccc([C@@H]2[C@@H]3C(=O)N(CC)C(=O)[C@@H]3[C@]3(C(=O)OC)CCCCN23)cc1 (stereo partly drawn),inactive: -6.61%,
Cc1ccc(NC(=O)Cn2nc(-c3ccc(Cl)cc3)c3ccccc3c2=O)cc1,inactive: 15.8%,
CN(C(=O)c1cccc(NC(=O)Cc2ccc(NC(=O)C3CCCN(C(=O)C4CCC4)C3)cc2)c1)C1CCCCC1 (stereo not drawn),,"inconclusive: 20.6 µM [falling, single point]"
Cc1cc[n+](Cc2ccc([N+](=O)[O-])cc2)cc1,,"inconclusive: 25.9 µM [falling, partial curve, poor fit]"
O=[N+]([O-])c1cccc(-c2n[nH]c(=S)n2Cc2ccccc2)c1,,"inconclusive: 11.6 µM [falling, partial curve, poor fit]"
Cc1ccc(S(=O)(=O)c2nnn(-c3cccc(F)c3)c2N)cc1,,"inconclusive: 20.6 µM [falling, single point]"
COc1ccc(S(=O)(=O)N2CCC(C(=O)NCCC(=O)Nc3cccc(Cl)c3)CC2)cc1,,"inconclusive: 20.6 µM [falling, single point]"
NC(=O)c1ccc(NC(=O)c2ccc(COc3ccc(F)cc3)o2)cc1,inactive: -5.7%,
CC(=O)Nc1ccc(S(=O)(=O)N(C)c2ccc(OCC(=O)NCCc3ccccc3F)cc2)cc1,,"inconclusive: 29.1 µM [falling, single point]"
